Results are given in words; binding and its absence hold for the method and conditions named. For some assays here: In cells and extracts the contact can be indirect. Some results given as binding are weak or reduced against the parent protein; the word gives no strength.

Amino acid sequences for entries named in this document (tags omitted). A change or cut given only in a name is not applied to a line headed by its entry.
UniProt P60467: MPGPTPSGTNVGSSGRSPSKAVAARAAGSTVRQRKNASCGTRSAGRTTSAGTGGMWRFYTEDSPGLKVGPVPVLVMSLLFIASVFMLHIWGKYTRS
UniProt P06625: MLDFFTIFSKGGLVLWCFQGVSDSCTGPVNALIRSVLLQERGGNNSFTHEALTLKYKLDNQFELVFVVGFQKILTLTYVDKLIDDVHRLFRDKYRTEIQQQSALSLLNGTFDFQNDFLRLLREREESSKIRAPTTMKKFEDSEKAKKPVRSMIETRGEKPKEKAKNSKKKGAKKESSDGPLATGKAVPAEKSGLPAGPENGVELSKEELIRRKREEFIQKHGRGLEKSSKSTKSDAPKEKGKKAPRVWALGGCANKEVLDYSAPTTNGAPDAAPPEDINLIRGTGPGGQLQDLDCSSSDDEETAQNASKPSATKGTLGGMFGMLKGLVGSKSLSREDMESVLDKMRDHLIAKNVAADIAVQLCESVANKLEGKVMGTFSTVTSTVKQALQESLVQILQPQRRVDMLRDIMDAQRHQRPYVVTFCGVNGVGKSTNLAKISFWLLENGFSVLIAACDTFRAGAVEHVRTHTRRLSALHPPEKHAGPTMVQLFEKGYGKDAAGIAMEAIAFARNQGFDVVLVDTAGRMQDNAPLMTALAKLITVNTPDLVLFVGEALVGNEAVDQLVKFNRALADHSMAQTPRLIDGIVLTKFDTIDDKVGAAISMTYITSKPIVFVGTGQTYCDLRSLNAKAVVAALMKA

For experiment [1], the target named is Sec61β (dog (endogenous in canine pancreatic microsomes)) (UniProt P60467). Kind of experiment: cross-linking; proteoliposomes reconstituted with purified Sec61 alone or together with purified endogenous SR and signal peptidase complex, BMH (10 μM); western blot for Sec61β; both purified.
For experiment [2] the target is unchanged. Put plainly: cross-linking; EKRM (100 eq) treated with 40 μM BMH, denatured in SDS, immunoprecipitated with anti-SRα or a non-related antiserum; western blot for Sec61β.

Regarding “endogenous SRP receptor (SR) (from UniProt P06625 1-638; A0A8I3Q3L6 1-271) (complex)”, the binding entry in experiment [1] is given as “binds weakly”; in experiment [2] it was “binds”.

For the origin of these results see publication PMC4686813.
